Changes are numbered by the printed parent chain. No constants are given. Whether binding was seen depends on the method and setting. In cells and extracts the contact can be indirect. Some results given as binding are weak or reduced against the parent protein; the word gives no strength. For some of these results: Where a sequence is shown, tags or fusion partners need not be part of it.
Experiments:
[1] = target: T1, HA-tagged full length SUSD4 (mouse) (UniProt Q8BH32); experiment: pull-down
T1 sequence: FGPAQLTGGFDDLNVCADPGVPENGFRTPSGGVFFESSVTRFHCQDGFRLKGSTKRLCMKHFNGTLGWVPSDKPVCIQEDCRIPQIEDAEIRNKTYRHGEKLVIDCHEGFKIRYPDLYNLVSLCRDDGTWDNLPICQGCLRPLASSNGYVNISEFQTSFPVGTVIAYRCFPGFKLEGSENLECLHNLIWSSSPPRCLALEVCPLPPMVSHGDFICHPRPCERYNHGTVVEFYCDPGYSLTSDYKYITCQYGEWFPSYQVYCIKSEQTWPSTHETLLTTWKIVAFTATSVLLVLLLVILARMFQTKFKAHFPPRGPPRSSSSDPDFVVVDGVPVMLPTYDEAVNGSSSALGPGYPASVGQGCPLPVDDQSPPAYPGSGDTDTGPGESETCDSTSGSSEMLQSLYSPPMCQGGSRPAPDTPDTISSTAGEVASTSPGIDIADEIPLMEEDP

By UniProt entry, the sequences of proteins in these tests, tags left out. Where a name states a change or a piece, a line headed by the entry shows the natural chain unless it says otherwise. Residues count along the entry.
UniProt Q9JLB9, 58-549: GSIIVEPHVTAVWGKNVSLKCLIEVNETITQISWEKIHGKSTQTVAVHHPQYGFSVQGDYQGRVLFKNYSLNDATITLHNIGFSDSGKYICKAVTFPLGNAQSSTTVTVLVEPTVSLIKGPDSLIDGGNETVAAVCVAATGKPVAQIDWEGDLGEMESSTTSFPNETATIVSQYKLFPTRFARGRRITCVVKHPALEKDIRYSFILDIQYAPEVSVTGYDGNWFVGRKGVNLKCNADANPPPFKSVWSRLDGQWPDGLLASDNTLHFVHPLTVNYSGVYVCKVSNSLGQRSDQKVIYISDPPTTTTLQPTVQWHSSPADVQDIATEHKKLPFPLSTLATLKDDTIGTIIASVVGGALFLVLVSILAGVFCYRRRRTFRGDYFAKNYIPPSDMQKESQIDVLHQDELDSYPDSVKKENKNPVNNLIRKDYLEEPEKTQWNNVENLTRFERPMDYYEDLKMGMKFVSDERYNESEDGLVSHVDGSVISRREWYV
UniProt Q8C863, whole entry: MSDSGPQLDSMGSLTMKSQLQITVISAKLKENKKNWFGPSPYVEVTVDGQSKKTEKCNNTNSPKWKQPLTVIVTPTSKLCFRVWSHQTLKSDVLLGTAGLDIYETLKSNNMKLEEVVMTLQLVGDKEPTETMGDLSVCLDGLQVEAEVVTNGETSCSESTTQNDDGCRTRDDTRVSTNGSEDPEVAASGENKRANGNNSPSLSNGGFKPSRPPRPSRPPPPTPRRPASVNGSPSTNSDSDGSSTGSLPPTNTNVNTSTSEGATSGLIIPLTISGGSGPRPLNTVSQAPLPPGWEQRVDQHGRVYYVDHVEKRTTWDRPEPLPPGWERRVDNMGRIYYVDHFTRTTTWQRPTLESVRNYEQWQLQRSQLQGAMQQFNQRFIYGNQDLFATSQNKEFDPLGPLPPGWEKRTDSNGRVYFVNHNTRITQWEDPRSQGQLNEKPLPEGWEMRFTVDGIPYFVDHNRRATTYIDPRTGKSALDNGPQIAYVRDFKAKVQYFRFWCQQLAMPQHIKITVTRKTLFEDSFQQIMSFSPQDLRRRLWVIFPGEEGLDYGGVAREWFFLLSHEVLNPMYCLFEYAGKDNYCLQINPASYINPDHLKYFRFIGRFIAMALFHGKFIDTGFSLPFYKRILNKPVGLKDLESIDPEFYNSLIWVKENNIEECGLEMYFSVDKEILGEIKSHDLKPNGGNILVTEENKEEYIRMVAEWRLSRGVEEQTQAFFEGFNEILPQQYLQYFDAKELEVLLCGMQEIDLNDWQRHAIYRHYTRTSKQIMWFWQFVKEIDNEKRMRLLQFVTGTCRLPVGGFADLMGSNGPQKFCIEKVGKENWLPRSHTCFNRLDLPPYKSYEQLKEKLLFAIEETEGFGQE
UniProt P46934, whole entry: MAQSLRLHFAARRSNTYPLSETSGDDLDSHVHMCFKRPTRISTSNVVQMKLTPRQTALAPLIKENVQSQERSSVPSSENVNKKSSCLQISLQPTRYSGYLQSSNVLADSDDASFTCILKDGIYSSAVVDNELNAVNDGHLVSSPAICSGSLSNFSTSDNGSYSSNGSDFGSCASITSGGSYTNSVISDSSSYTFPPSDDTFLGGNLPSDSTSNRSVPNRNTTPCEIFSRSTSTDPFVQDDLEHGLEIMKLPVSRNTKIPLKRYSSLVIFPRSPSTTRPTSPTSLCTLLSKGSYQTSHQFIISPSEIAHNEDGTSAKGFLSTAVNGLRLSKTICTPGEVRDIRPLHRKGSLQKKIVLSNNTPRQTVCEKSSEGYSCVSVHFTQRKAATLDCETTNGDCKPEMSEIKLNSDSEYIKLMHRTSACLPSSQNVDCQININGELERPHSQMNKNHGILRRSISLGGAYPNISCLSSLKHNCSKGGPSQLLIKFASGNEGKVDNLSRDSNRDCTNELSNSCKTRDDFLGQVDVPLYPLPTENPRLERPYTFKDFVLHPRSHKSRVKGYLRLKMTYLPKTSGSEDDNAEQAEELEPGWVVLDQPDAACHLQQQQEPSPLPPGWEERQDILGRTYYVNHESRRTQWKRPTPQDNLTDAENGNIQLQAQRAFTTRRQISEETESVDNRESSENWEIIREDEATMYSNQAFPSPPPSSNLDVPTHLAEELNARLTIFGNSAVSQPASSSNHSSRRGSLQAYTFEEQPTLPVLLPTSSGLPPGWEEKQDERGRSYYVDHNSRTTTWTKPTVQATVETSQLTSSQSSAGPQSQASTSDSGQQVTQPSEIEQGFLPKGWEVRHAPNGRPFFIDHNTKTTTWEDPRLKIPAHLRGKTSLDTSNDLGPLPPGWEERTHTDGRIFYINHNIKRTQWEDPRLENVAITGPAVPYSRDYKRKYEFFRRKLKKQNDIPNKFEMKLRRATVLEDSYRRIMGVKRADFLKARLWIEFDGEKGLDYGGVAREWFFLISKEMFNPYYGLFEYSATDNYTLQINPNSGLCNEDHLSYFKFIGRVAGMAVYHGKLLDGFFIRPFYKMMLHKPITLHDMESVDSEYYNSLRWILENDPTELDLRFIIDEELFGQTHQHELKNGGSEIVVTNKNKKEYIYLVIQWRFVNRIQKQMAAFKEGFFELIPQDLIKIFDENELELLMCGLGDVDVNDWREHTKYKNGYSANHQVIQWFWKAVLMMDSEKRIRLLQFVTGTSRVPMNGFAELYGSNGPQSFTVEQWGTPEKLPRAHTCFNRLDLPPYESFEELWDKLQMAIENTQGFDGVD
UniProt P46935, whole entry: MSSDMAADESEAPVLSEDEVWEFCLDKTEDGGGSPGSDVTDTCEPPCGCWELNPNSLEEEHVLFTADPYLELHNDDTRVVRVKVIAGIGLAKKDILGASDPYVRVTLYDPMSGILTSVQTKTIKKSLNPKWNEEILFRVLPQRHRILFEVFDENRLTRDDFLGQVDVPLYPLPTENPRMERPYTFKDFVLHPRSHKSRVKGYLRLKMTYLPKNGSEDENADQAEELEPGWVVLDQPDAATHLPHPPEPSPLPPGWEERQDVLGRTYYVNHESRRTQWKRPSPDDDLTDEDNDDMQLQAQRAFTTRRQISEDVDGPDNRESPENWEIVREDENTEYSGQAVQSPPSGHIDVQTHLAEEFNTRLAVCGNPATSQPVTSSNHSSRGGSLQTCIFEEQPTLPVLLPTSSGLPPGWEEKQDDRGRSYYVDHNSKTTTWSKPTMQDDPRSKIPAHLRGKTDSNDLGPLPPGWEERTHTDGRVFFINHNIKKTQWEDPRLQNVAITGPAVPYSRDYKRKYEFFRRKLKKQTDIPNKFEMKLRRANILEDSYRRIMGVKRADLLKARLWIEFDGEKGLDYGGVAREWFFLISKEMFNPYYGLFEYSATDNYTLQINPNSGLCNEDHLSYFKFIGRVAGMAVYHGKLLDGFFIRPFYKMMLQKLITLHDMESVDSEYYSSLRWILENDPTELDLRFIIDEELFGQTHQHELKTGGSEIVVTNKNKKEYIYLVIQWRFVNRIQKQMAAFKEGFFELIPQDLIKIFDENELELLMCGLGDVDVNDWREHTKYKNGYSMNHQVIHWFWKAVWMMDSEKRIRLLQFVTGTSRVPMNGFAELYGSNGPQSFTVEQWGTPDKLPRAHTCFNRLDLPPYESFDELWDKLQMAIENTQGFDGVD
UniProt P19491, 22-883: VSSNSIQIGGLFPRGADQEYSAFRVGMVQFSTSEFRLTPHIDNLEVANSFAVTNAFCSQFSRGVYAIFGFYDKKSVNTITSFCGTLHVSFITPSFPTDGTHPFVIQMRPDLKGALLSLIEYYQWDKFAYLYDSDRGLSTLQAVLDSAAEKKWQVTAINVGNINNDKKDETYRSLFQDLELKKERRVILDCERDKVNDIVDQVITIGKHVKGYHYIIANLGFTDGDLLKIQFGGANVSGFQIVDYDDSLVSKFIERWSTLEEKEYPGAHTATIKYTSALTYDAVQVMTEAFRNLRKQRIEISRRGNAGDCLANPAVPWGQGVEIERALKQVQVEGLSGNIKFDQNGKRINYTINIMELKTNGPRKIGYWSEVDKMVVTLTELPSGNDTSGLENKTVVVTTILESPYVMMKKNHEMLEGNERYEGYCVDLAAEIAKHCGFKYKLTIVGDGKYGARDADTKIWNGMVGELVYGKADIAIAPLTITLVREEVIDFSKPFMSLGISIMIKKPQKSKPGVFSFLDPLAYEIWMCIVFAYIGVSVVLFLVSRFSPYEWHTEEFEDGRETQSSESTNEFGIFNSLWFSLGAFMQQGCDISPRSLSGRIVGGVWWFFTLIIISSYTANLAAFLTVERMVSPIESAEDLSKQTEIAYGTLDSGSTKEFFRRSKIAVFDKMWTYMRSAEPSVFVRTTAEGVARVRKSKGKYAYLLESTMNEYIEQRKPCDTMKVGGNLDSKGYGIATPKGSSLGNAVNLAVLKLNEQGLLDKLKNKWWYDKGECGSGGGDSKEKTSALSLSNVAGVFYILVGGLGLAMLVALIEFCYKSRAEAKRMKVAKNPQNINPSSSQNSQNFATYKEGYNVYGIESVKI

[2] = target: T2, HA-SUSD4-ΔPY (point mutation of the PPxY site) (mouse) (UniProt Q8BH32); experiment: co-IP
T2 sequence: T1 sequence with P370A, Y373A

[3] = target: T3, HA-SUSD4-ΔLY (point mutation of the LPxY site) (mouse) (UniProt Q8BH32); experiment: co-IP
T3 sequence: T1 sequence with L335A, Y338A

[4] = target: T4, HA-SUSD4-ΔPY/LY (double mutant at both PPxY and LPxY) (mouse) (UniProt Q8BH32); experiment: co-IP
T4 sequence: T1 sequence with L335A, Y338A, P370A, Y373A

[5] = target: T1, HA-tagged full length SUSD4 (mouse); experiment: co-IP
[6] = target: T5, HA-SUSD4-NT (extracellular form of SUSD4) (mouse) (UniProt Q8BH32); experiment: co-IP
T5 sequence: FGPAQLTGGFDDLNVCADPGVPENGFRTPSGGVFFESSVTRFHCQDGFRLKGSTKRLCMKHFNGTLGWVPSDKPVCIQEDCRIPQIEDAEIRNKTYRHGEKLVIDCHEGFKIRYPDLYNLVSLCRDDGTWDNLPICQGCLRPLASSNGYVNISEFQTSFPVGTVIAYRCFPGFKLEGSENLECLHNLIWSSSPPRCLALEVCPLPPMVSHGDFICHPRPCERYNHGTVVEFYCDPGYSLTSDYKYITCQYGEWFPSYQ

[7] = target: PVRL3α (control transmembrane protein) (UniProt Q9JLB9); experiment: co-IP
[8] = target: T6, HA-SUSD4ΔNT (lacking the extracellular domain) (mouse) (UniProt Q8BH32); experiment: co-IP
T6 sequence: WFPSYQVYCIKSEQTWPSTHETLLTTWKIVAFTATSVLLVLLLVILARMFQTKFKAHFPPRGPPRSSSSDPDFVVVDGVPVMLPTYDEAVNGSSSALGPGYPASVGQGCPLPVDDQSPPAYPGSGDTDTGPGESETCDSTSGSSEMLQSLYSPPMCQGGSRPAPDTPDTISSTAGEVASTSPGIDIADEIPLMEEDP

## ITCH (from UniProt Q8C863 1-864) (enzyme)
[1]
  binding: binds

## NEDD4 (HEK293 cells) (from UniProt P46934 1-1319) (enzyme)
[2]
  binding: binds
[3]
  binding: no binding
[4]
  binding: no binding
[5]
  binding: binds

## NEDD4 (mouse cerebellar synaptosomes) (from UniProt P46935 1-887) (enzyme)
[1]
  binding: binds

## SEP-tagged GLUA2 (from UniProt P19491 22-883) (receptor)
[6]
  binding: binds
[3]
  binding: binds
[4]
  binding: binds
[5]
  binding: binds
[7]
  binding: no binding
[8]
  binding: binds

## WWP1 (from UniProt Q8BZZ3 1-918) (enzyme)
[1]
  binding: binds

Reference: doi:10.1101/859587
